The other results are listed elsewhere or left out.
The targets below were run with CC1Cc2ccccc2N1C(=O)C1CCCN(C1)C(=O)CCl (mixture of isomers) [TRIM25 ligand 11 (diastereomer mixture)] (assay: probe-labelled cysteine peptide fold change vs DMSO (competition) (log2 fold change); higher = less target engagement (more negative = stronger competition)). Settings: 10 µM; THP-1; incubation time: 4 h.
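Note: competitive chemoproteomic profiling in live THP-1 cells with an iodoacetamide desthiobiotin (IA-DTB) probe, comparing probe-labelled peptide intensities in compound-treated cells against DMSO-treated controls.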

Sequences of proteins named here, by UniProt entry; tags and fusion partners are left off. A change or cut given only in a name is not applied to a line headed by its entry.
UniProt Q7Z3B4: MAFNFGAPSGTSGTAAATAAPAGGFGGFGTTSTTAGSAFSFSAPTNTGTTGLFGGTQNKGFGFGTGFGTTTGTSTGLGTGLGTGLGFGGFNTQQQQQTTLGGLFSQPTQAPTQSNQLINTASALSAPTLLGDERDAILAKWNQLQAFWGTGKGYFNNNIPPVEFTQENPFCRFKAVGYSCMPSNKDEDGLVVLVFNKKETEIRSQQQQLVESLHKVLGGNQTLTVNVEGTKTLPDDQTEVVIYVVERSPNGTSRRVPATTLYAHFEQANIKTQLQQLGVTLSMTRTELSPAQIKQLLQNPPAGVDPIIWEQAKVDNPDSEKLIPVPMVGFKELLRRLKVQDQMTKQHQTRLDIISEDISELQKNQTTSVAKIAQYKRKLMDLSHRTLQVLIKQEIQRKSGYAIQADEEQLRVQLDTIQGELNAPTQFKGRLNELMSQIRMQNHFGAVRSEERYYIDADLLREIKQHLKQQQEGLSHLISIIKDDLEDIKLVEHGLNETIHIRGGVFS
UniProt P78549: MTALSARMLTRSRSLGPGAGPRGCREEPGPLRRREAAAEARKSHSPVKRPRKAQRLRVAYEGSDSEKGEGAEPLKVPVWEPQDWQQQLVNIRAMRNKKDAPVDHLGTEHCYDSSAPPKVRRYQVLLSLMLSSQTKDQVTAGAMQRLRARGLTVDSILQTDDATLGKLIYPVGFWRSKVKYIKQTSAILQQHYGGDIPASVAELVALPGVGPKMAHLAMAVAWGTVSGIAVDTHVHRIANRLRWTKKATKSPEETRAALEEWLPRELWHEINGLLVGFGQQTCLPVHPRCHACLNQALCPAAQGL
UniProt Q96RS6: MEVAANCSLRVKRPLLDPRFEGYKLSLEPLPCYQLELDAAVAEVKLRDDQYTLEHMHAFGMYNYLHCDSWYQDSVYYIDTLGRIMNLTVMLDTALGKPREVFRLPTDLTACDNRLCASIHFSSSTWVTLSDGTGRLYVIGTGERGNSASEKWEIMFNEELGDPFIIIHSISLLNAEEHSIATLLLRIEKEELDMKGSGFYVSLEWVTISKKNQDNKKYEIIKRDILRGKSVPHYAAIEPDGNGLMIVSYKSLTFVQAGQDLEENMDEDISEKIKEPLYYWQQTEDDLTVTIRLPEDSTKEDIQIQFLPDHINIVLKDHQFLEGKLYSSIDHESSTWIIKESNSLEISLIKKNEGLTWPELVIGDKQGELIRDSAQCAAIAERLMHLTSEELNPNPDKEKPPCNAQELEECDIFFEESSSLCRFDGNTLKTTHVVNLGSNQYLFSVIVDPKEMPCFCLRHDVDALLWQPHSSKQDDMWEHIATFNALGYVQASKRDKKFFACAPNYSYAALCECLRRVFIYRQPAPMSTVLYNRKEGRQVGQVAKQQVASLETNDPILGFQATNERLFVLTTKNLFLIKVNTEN
UniProt Q02218: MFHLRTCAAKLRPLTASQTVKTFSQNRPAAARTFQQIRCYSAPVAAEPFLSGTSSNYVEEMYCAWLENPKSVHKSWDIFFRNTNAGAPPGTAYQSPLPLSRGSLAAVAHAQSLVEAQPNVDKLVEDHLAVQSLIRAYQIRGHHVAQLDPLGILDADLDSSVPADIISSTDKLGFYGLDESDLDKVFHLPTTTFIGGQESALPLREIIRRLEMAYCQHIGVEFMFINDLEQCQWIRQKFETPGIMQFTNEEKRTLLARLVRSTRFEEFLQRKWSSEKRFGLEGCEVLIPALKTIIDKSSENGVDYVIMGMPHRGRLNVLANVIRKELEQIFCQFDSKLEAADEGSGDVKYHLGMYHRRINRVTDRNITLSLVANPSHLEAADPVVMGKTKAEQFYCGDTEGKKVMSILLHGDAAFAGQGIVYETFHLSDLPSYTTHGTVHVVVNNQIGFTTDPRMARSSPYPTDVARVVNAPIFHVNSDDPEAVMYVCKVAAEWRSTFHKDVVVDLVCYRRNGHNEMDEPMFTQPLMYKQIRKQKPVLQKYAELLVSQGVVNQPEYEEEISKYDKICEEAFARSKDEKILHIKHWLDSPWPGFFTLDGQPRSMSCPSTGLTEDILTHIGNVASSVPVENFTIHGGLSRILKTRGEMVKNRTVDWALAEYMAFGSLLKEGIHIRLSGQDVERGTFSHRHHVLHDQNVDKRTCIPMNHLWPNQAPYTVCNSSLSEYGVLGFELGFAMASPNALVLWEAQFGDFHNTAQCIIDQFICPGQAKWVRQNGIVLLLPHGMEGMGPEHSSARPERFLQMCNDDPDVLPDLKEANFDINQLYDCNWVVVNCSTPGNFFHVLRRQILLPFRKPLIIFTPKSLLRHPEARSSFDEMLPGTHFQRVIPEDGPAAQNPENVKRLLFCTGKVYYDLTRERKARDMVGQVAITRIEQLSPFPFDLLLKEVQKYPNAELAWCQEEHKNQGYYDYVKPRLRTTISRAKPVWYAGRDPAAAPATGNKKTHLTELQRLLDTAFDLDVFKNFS
UniProt Q92621: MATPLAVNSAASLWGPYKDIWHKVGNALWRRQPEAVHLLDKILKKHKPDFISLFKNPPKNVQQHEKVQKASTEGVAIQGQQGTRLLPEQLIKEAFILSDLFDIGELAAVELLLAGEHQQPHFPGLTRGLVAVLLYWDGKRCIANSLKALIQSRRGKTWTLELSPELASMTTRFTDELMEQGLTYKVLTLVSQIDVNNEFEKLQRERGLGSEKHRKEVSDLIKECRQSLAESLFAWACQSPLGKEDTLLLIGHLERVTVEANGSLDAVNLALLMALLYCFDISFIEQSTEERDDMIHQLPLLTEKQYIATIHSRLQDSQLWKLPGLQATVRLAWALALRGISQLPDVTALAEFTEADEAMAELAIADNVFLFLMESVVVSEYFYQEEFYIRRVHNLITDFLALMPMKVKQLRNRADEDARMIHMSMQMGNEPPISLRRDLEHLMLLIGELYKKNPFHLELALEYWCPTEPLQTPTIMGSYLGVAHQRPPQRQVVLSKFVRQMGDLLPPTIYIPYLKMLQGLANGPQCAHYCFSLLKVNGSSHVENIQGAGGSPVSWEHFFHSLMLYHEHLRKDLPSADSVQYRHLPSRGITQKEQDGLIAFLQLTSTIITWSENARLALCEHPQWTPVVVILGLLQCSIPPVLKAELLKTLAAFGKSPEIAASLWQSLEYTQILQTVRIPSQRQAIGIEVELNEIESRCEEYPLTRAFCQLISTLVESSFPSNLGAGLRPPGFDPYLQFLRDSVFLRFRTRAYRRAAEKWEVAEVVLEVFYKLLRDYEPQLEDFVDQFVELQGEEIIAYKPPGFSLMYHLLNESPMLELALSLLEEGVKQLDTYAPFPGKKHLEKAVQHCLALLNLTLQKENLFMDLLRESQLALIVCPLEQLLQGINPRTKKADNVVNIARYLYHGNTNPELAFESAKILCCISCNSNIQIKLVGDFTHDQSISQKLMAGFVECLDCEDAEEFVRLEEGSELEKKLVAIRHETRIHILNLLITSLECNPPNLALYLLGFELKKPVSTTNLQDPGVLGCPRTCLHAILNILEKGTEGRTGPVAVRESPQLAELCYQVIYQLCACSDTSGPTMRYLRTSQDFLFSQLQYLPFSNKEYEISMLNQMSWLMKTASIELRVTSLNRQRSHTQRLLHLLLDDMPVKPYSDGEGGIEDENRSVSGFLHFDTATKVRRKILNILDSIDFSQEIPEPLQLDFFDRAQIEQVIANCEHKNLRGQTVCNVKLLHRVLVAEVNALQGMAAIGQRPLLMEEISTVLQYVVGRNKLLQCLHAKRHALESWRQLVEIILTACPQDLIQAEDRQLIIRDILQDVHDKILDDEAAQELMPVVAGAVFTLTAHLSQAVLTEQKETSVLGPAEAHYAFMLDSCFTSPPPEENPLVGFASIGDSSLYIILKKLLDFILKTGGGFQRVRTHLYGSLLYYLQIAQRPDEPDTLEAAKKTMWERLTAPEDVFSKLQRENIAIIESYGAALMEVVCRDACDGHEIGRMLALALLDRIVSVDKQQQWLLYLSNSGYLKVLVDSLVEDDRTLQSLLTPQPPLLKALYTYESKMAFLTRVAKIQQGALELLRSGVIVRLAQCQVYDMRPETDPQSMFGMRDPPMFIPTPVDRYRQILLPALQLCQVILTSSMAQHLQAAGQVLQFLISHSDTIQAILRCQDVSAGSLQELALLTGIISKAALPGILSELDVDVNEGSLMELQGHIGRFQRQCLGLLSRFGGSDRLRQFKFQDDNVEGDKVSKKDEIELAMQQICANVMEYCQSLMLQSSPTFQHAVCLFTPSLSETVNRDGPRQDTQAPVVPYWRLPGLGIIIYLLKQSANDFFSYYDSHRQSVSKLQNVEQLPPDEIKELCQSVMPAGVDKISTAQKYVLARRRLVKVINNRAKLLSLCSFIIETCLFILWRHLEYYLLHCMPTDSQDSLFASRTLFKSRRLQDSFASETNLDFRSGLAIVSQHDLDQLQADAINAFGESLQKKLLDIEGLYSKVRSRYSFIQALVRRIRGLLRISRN
UniProt P52948: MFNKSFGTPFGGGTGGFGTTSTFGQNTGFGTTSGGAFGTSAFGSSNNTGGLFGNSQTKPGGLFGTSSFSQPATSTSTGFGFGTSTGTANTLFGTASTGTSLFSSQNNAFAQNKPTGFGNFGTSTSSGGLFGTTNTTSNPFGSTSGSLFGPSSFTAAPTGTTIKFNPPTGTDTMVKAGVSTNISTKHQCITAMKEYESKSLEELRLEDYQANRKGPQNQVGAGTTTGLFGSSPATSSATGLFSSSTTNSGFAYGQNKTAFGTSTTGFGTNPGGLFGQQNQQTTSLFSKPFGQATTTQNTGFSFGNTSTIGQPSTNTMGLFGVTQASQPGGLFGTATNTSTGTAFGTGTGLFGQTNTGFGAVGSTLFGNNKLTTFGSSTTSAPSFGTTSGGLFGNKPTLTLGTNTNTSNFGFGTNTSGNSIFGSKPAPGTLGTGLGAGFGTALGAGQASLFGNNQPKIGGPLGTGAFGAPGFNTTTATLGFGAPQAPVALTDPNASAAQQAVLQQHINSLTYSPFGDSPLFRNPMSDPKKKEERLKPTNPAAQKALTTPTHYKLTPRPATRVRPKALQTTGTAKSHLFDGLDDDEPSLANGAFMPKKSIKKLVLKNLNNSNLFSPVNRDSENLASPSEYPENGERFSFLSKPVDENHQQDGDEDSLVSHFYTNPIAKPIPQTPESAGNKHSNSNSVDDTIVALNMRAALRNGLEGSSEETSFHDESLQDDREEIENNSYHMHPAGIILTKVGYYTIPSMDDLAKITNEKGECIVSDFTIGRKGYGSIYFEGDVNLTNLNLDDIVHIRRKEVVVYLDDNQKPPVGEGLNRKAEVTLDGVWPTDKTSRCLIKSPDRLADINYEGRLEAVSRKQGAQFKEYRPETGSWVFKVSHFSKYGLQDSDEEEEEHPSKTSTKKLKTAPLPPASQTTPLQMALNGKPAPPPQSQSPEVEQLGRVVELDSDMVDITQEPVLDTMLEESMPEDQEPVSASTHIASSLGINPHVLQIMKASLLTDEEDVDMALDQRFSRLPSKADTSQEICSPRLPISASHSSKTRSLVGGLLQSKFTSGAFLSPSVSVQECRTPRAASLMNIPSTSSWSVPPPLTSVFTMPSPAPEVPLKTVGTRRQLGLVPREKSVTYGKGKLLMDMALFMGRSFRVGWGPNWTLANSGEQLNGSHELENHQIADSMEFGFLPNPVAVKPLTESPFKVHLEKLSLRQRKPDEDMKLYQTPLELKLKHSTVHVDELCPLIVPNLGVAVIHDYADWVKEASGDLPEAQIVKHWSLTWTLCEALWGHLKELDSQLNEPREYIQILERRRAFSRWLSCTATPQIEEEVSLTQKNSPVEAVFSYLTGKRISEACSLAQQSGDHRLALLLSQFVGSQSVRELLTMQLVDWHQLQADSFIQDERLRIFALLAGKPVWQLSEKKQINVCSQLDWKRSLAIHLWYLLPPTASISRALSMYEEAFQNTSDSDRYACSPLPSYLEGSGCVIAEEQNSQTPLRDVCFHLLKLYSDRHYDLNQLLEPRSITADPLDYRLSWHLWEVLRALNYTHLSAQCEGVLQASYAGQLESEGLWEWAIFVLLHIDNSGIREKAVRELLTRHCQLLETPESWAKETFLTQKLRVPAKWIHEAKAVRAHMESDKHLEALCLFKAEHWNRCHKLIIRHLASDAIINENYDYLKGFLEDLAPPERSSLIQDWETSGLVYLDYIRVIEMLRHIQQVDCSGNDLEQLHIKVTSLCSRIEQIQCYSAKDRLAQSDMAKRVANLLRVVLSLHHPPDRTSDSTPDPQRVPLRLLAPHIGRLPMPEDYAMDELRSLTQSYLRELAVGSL
UniProt Q9Y5Y2: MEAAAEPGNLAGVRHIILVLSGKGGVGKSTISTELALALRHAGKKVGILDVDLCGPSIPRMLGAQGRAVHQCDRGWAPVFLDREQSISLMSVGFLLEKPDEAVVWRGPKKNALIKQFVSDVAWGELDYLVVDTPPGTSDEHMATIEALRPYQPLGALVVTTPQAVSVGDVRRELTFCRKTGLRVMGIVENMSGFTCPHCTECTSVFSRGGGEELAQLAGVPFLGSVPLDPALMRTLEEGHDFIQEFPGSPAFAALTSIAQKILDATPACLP

Target	probe-labelled cysteine peptide fold change
OCRL_Q01968_679_DYFLTISGNYLPSCFGTSLEALCR (UniProt Q01968)	0.224
OAS3_Q9Y6K5_350_AGCSGLGHPIQLDPNQK (UniProt Q9Y6K5)	-0.0319
NUP160_Q12769_480_ALQIFCR (UniProt Q12769)	0.00491
NUDT12_Q9BQG2_18_QEIVTQFHCSAAEGDIAK (UniProt Q9BQG2)	0.00547
NUP54_Q7Z3B4_171_GYFNNNIPPVEFTQENPFCR (UniProt Q7Z3B4)	-0.0322
NUP43_Q8NFH3_222_QQGNEPSQILSLTGDRVPLHCVDRHPNQQHVVATGGQDGMLSIWDVR (UniProt Q8NFH3)	-0.214
NTHL1_P78549_290_ELWHEINGLLVGFGQQTCLPVHPR (UniProt P78549)	0.179
NUP88_Q99567_447_CFVEHILCTK (UniProt Q99567)	0.0557
NXF1_Q9UBU9_252_SCMAATLR (UniProt Q9UBU9)	-0.00854
NUMB_P49757_611_HTEVPTGTCPVDPFEAQWAALENK (UniProt P49757)	-0.101
NUP214_P35658_298_HPEIFVNFMEPCYGSCTER (UniProt P35658)	0.294
NUTF2_P61970_80_IQHSITAQDHQPTPDSCIISMVVGQLKADEDPIMGFHQMFLLK (UniProt P61970)	-0.758
NUDCD1_Q96RS6_7_MEVAANCSLR (UniProt Q96RS6)	0.178
OGDH_Q02218_283_RFGLEGCEVLIPALK (UniProt Q02218)	0.00857
NUP153_P49790_753_CVACETPKPGTCVK (UniProt P49790)	-0.08
NVL_O15381_431_EICLGIPDEASR (UniProt O15381)	0.0951
OGDH_Q02218_487_VVNAPIFHVNSDDPEAVMYVCK (UniProt Q02218)	-0.106
NUDCD1_Q96RS6_402+410+421_EKPPCNAQELEECDIFFEESSSLCR (UniProt Q96RS6)	-0.124
NUP205_Q92621_141_CIANSLK (UniProt Q92621)	0.109
NUP98_P52948_1347_ISEACSLAQQSGDHR (UniProt P52948)	0.227
NUBP2_Q9Y5Y2_72_AVHQCDR (UniProt Q9Y5Y2)	-0.0198

Rewritten in markdown: entries from further up

| Target | probe-labelled cysteine peptide fold change |
| --- | --- |
| NUP205_Q92621_141_CIANSLK (UniProt Q92621) | 0.109 |
| NUP98_P52948_1347_ISEACSLAQQSGDHR (UniProt P52948) | 0.227 |
